# Assay results reported in PubChem BioAssay AID493014 (National Center for Advancing Translational Sciences (NCATS), 2011).
# This is one part of the list. Further columns of the screen follow, without active or inactive calls. Compounds called inactive in the main read-out are mostly missing here. Words in brackets tell the shape of the fitted curve; partial curves, single points and poor fits give uncertain potencies.
# Assay: qHTS Assay to Find Inhibitors of Chronic Active B-Cell Receptor Signaling
# Conditions: ABC-DLBCL IkBa-CBG/CBR reporter, luminescence ratio (green luciferase fused to IkBa over red control in TMD8 lymphoma cells), 4 h
# Method in brief: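 TMD8 ABC-DLBCL cells carrying doxycycline-inducible green luciferase fused to IkappaBalpha plus unfused red luciferase were exposed to compounds (up to 46 uM) for 4 hrs at 37C. Activity came from the overlap-corrected green/red luminescence ratio.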
# [1] = measured here: CBR red luminescence, cell number
SMILES,AC50 [1],AC50 (measured here: IkBa-CBG green luminescence)
CCCCc1ccc(Nc2ncnc3nc[nH]c23)cc1,"3.66 µM [falling, partial curve, poor fit]",
CCN1CCN(c2ccc(NC(=O)c3ccc([N+](=O)[O-])o3)cc2Cl)CC1,"0.141 µM [falling, partial curve, poor fit]",
NNc1nc(-c2ccccc2)cc(-c2ccc(Br)cc2)n1,"35.5 µM [falling, single point]",
Nc1ccc2oc(-c3ccccn3)nc2c1,,"20.6 µM [rising, partial curve, poor fit]"
Cc1c(NC(=O)c2ccc(Cl)nc2)cccc1-c1nc2cccnc2s1,"35.5 µM [falling, single point]",
COc1ccc(-c2nc(-c3ccccc3)c(-c3cc([N+](=O)[O-])ccc3C)[nH]2)cc1O,"11.2 µM [falling, partial curve]",
CCc1ccccc1OC[C@@H](O)CN[C@H]1CCCc2ccccc21,"2.59 µM [falling, partial curve, poor fit]",
COc1ccc(C(=O)OCC(=O)c2cc(OC)ccc2OC)c(OC)c1,"6.31 µM [rising, partial curve, poor fit]",
Cc1ccc(CCc2nnc(SCC(=O)Nc3ccccc3Cl)n2-c2ccccc2)o1,"23.1 µM [falling, single point]",
Cc1ccc2nc(N3CCN(C(=O)C4CC4)CC3)sc2c1,"0.794 µM [rising, full curve, poor fit]",
O=C(O)c1ccc2noc(-c3ccccc3)c2c1,"0.731 µM [falling, full curve]",
CC(C)(C)C(=O)Nc1ccc(-c2cc3cc(Cl)ccc3o2)cc1,"35.5 µM [rising, single point]",
COc1ccccc1N(C(=O)CNS(=O)(=O)c1ccccc1)C(C(=O)NCc1ccco1)C(C)C (stereo not drawn),"5.01 µM [falling, partial curve, poor fit]",
CCN1C(=O)CC(N2CCN(c3cccc(OC)c3)CC2)C1=O (stereo not drawn),"35.5 µM [rising, single point]",
COc1ccc(N2CCN(C(=O)c3ccc(NS(=O)(=O)c4cccc(F)c4)cc3)CC2)cc1,"2.06 µM [rising, partial curve, poor fit]",
CCC(=O)Nc1cccc(NC(=S)NC(=O)c2cccc(C)c2)c1,"18.4 µM [falling, single point]",
O=C(Cn1c(-c2ccccn2)nc2ccccc21)N/N=C/c1cccnc1,"35.5 µM [rising, single point]",
CS(=O)(=O)Nn1cnc2ccccc2c1=O,"32.6 µM [rising, single point]",

# Single entries from the list:
# `Cc1ccc2nc(N3CCN(C(=O)C4CC4)CC3)sc2c1` | AC50 [1]: 0.794 µM [rising, full curve, poor fit]
# `CCC(=O)Nc1cccc(NC(=S)NC(=O)c2cccc(C)c2)c1` | AC50 [1]: 18.4 µM [falling, single point]
